# Test results from US20170246263A1 (SHIRE HUMAN GENETIC THERAPIES, published 2017).
# Chains of the proteins cited; added tags and fusions are not shown. Lines headed by an entry give the natural chain unless they say otherwise; changes in a name come on top.
# UniProt Q99523: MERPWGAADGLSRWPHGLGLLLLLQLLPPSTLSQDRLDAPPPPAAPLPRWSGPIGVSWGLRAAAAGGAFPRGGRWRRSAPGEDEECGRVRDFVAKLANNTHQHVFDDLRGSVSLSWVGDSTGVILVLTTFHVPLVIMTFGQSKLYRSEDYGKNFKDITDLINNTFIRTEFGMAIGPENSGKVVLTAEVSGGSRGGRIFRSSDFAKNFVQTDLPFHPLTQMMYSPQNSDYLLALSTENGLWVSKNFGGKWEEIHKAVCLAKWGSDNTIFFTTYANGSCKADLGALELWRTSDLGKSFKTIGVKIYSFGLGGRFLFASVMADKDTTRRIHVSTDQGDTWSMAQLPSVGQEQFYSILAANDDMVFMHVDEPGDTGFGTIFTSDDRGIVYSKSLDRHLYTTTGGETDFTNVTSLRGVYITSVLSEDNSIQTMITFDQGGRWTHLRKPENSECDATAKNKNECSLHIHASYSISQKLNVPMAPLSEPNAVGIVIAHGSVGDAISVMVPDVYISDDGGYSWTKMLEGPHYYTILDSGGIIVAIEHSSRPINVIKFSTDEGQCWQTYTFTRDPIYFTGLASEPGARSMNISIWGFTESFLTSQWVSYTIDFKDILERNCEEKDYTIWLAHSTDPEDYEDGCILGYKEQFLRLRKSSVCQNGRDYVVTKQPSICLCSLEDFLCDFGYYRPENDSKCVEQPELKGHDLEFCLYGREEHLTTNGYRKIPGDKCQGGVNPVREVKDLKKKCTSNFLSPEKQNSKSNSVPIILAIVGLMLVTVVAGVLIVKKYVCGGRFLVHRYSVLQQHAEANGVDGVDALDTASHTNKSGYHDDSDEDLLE
# Results are given in words; binding and its absence hold for the method and conditions named. Some entries that bind do so weakly or less than the wild type. Sequences can lack the tags named with a protein.
# Biological target: SORT1 on SORT1 overexpressing cells (Homo sapiens (Human)) (UniProt Q99523)
# Experiment: binding/uptake assay on SORT1 overexpressing cells
row,Binder,binding
1,Naglu-SPP fusion protein (enzyme) DEAREAAAVRALVARLLGPGPAADFSVSVERALAAKPGLDTYSLGGGGAARVRVRGSTGVAAAAGLHRYLRDFCGCHVAWSGSQLRLPRPLPAVPGELTEATPNRYRYYQNVCTQSYSFVWWDWARWEREIDWMALNGINLALAWSGQEAIWQRVYLALGLTQAEINEFFTGPAFLAWGRMGNLHTWDGPLPPSWHIKQLYLQHRVLDQMRSFGMTPVLPAFAGHVPEAVTRVFPQVNVTKMGSWGHFNCSYSCSFLLAPEDPIFPIIGSLFLRELIKEFGTDHIYGADTFNEMQPPSSEPSYLAAATTAVYEAMTAVDTEAVWLLQGWLFQHQPQFWGPAQIRAVLGAVPRGRLLVLDLFAESQPVYTRTASFQGQPFIWCMLHNFGGNHGLFGALEAVNGGPEAARLFPNSTMVGTGMAPEGISQNEVVYSLMAELGWRKDPVPDLAAWVTSFAARRYGVSHPDAGAAWRLLLRSVYNCSGEACRGHNRSPLVRRPSLQMNTSIWYNRSDVFEAWRLLLTSAPSLATSPAFRYDLLDLTRQAVQELVSLYYEEARSAYLSKELASLLRAGGVLAYELLPALDEVLASDSRFLLGSWLEQARAAAVSEAEADFYEQNSRYQLTLWGPEGNILDYANKQLAGLVANYYTPRWRLFLEALVDSVAQGIPFQQHQFDKNVFQLEQAFVLSKQRYPSQPRGDTVDLAKKIFLKYYPRWVAGSWGAPGGGGGAAAAAGGGGGGAPGGGGGAAAAAGGGGGGAPGGGGGAAAAAGGGGGGAPQDRLDAPPPPAAPLPRWSGPIGVSWGLRAAAAGGAFPRGGRWRR,binds
2,Naglu-SapDC fusion protein (enzyme) DEAREAAAVRALVARLLGPGPAADFSVSVERALAAKPGLDTYSLGGGGAARVRVRGSTGVAAAAGLHRYLRDFCGCHVAWSGSQLRLPRPLPAVPGELTEATPNRYRYYQNVCTQSYSFVWWDWARWEREIDWMALNGINLALAWSGQEAIWQRVYLALGLTQAEINEFFTGPAFLAWGRMGNLHTWDGPLPPSWHIKQLYLQHRVLDQMRSFGMTPVLPAFAGHVPEAVTRVFPQVNVTKMGSWGHFNCSYSCSFLLAPEDPIFPIIGSLFLRELIKEFGTDHIYGADTFNEMQPPSSEPSYLAAATTAVYEAMTAVDTEAVWLLQGWLFQHQPQFWGPAQIRAVLGAVPRGRLLVLDLFAESQPVYTRTASFQGQPFIWCMLHNFGGNHGLFGALEAVNGGPEAARLFPNSTMVGTGMAPEGISQNEVVYSLMAELGWRKDPVPDLAAWVTSFAARRYGVSHPDAGAAWRLLLRSVYNCSGEACRGHNRSPLVRRPSLQMNTSIWYNRSDVFEAWRLLLTSAPSLATSPAFRYDLLDLTRQAVQELVSLYYEEARSAYLSKELASLLRAGGVLAYELLPALDEVLASDSRFLLGSWLEQARAAAVSEAEADFYEQNSRYQLTLWGPEGNILDYANKQLAGLVANYYTPRWRLFLEALVDSVAQGIPFQQHQFDKNVFQLEQAFVLSKQRYPSQPRGDTVDLAKKIFLKYYPRWVAGSWGAPGGGGGAAAAAGGGGGGAPGGGGGAAAAAGGGGGGAPGGGGGAAAAAGGGGGGAPDGGFCEVCKKLVGYLDRNLEKNSTKQEILAALEKGCSFLPDPYQKQCDQFVAEYEPVLIEILVEVMDPSFVCLKIGACPSAHKPLLGTEKCIWGPSYWCQNTETAAQCNAVEHCKRHVWN,binds
3,"Naglu-tPRGN fusion protein (enzyme, also called Naglu-tPGRN) DEAREAAAVRALVARLLGPGPAADFSVSVERALAAKPGLDTYSLGGGGAARVRVRGSTGVAAAAGLHRYLRDFCGCHVAWSGSQLRLPRPLPAVPGELTEATPNRYRYYQNVCTQSYSFVWWDWARWEREIDWMALNGINLALAWSGQEAIWQRVYLALGLTQAEINEFFTGPAFLAWGRMGNLHTWDGPLPPSWHIKQLYLQHRVLDQMRSFGMTPVLPAFAGHVPEAVTRVFPQVNVTKMGSWGHFNCSYSCSFLLAPEDPIFPIIGSLFLRELIKEFGTDHIYGADTFNEMQPPSSEPSYLAAATTAVYEAMTAVDTEAVWLLQGWLFQHQPQFWGPAQIRAVLGAVPRGRLLVLDLFAESQPVYTRTASFQGQPFIWCMLHNFGGNHGLFGALEAVNGGPEAARLFPNSTMVGTGMAPEGISQNEVVYSLMAELGWRKDPVPDLAAWVTSFAARRYGVSHPDAGAAWRLLLRSVYNCSGEACRGHNRSPLVRRPSLQMNTSIWYNRSDVFEAWRLLLTSAPSLATSPAFRYDLLDLTRQAVQELVSLYYEEARSAYLSKELASLLRAGGVLAYELLPALDEVLASDSRFLLGSWLEQARAAAVSEAEADFYEQNSRYQLTLWGPEGNILDYANKQLAGLVANYYTPRWRLFLEALVDSVAQGIPFQQHQFDKNVFQLEQAFVLSKQRYPSQPRGDTVDLAKKIFLKYYPRWVAGSWGAPGGGGGAAAAAGGGGGGAPGGGGGAAAAAGGGGGGAPGGGGGAAAAAGGGGGGAPTKCLRREAPRWDAPLRDPALRQLL",binds
